Assay [1] has as its target thrombin. The assay can be described thus: complex formation at different pH, western blot. On the technique in general: In western blotting, separated proteins are transferred to a membrane and probed.
In assay [2] the target is thrombin. The assay can be described thus: complex formation in the presence of heparin, western blot.

Results are given in words; binding and its absence hold for the method and conditions named. A result given as binding can be weak or reduced; the word gives no strength.

B1: mouse prostasin-binding protein (mPBP) (protein, UniProt Q07235 20-397, looked up)
chain: SQFNSLSLEELGSNTGIQVFNQIIKSRPHENVVVSPHGIASILGMLQLGADGKTKKQLSTVMRYNVNGVGKVLKKINKAIVSKKNKDIVTVANAVFLRNGFKMEVPFAVRNKDVFQCEVQNVNFQDPASASESINFWVKNETRGMIDNLLSPNLIDGALTRLVLVNAVYFKGLWKSRFQPESTKKRTFVAGDGKSYQVPMLAQLSVFRSGSTRTPNGLWYNFIELPYHGESISMLIALPTESSTPLSAIIPHITTKTIDSWMNTMVPKRMQLVLPKFTAVAQTDLKEPLKALGITEMFEPSKANFTKITRSESLHVSHILQKAKIEVSEDGTKASAATTAILIARSSPPWFIVDRPFLFSIRHNPTGAILFLGQVNKP
As for B1, the binding result with thrombin [1] and in the assay with thrombin [2] was “binds” throughout.
